Data from paper PMC8053111.
The exact form of at least one protein or probe is not confirmed. For part of these data: A weaker result is weaker than the reference pair of the same experiment. For part of these data: Where cells or extracts were used, other partners may take part. For part of these data: At least one verdict rests on a figure or table, not on a statement of the authors.

Protein sequences, listed by entry. Tags and fused reporters are not part of them.
UniProt P11940, whole entry: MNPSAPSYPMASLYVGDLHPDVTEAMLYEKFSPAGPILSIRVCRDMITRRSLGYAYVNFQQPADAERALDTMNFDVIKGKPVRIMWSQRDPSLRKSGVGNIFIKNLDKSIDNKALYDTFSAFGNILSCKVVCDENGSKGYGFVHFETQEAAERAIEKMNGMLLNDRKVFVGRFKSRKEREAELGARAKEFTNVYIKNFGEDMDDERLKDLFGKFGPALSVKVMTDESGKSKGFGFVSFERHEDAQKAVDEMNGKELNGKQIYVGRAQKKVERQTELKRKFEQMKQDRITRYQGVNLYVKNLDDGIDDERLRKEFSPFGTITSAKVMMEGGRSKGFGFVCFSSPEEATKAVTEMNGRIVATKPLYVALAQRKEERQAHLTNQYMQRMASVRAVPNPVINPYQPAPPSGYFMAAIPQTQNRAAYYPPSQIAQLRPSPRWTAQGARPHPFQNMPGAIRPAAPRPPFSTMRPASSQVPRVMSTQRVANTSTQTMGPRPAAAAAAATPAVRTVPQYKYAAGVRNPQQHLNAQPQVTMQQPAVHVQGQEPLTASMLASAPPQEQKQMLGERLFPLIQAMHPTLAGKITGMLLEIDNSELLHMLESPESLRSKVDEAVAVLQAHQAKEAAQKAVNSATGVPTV
UniProt Q13310, whole entry: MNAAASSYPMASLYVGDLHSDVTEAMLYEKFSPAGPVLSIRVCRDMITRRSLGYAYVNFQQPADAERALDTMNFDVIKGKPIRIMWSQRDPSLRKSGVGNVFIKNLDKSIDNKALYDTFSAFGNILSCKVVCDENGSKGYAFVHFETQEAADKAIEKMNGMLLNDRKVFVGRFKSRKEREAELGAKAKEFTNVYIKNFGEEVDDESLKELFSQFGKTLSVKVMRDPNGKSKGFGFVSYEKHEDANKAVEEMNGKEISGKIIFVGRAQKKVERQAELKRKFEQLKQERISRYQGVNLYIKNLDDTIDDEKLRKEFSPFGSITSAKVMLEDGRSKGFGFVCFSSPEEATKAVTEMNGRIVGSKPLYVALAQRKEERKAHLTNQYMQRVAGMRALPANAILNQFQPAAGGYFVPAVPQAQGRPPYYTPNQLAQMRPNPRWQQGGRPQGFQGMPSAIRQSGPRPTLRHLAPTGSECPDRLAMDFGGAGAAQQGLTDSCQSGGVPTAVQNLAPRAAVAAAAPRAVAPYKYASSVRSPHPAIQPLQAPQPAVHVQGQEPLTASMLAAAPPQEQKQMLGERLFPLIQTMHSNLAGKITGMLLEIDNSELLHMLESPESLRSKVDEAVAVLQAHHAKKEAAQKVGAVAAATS

Assays:
Assay in all cases: EMSA
[1] = target: PABPC1 (from MKRN3-/- HEK293 cells, not MKRN3-ubiquitinated) (human) (UniProt P11940); conditions: unmodified, no MKRN3; EMSA Binding Buffer (Beyotime, 5x stock; composition, salt and pH not given), room temperature, 1 h; 8% polyacrylamide 0.5x TBE gel; protein in a lysate after overexpression; protein details: Flag; label: 32P (gamma-32P, stated at 3' end by T4 PNK)
[2] = target: PABPC4 (from MKRN3-/- HEK293 cells, not MKRN3-ubiquitinated) (human) (UniProt Q13310); conditions: unmodified, no MKRN3; EMSA Binding Buffer (Beyotime, 5x stock; composition, salt and pH not given), room temperature, 1 h; 8% polyacrylamide 0.5x TBE gel; protein in a lysate after overexpression; protein details: Flag; label: 32P (gamma-32P, stated at 3' end by T4 PNK)
[3] = target: Ub-PABPC1 (from MKRN3-/- HEK293 cells + MKRN3) (human) (UniProt P11940); conditions: ubiquitinated in cells, much weaker than unmodified; EMSA Binding Buffer (Beyotime, 5x stock; composition, salt and pH not given), room temperature, 1 h; 8% polyacrylamide 0.5x TBE gel; protein in a lysate after overexpression; protein details: Flag; label: 32P (gamma-32P, stated at 3' end by T4 PNK)
[4] = target: Ub-PABPC1 (in vitro ubiquitinated by MKRN3) (human) (UniProt P11940); conditions: in vitro ubiquitinated by MKRN3, much less affinity than unmodified; EMSA Binding Buffer (Beyotime, 5x stock; composition, salt and pH not given), room temperature, 1 h; 8% polyacrylamide 0.5x TBE gel; recombinant protein; residues 1-636; protein details: Flag-His6; label: 32P (gamma-32P, stated at 3' end by T4 PNK)
[5] = target: Ub-PABPC4 (from MKRN3-/- HEK293 cells + MKRN3) (human) (UniProt Q13310); conditions: ubiquitinated in cells, much weaker than unmodified; EMSA Binding Buffer (Beyotime, 5x stock; composition, salt and pH not given), room temperature, 1 h; 8% polyacrylamide 0.5x TBE gel; protein in a lysate after overexpression; protein details: Flag; label: 32P (gamma-32P, stated at 3' end by T4 PNK)
[6] = target: Ub-PABPC4 (in vitro ubiquitinated by MKRN3) (human) (UniProt Q13310); conditions: in vitro ubiquitinated by MKRN3, much less affinity than unmodified; EMSA Binding Buffer (Beyotime, 5x stock; composition, salt and pH not given), room temperature, 1 h; 8% polyacrylamide 0.5x TBE gel; recombinant protein; protein details: Flag-His6; label: 32P (gamma-32P, stated at 3' end by T4 PNK)

## AAAAAAAAAAAAAAAAAAAAAAAAAAAAAA [(A)30 RNA]
[1]
  binding result: binds
[2]
  binding result: binds
[3]
  binding result: binds more weakly
[4]
  binding result: binds more weakly
[5]
  binding result: binds more weakly
[6]
  binding result: binds more weakly
